The values below come from paper PMC12317139.

These are yes or no findings as the source states them, for the method shown. In cells and extracts the contact can be indirect. Some entries that bind do so weakly or less than the wild type. Tags and fused reporters may be left off the sequences shown.

In assay [1] the target is T1, TRPM3 with a C-terminal RFP tag (TRPM3-RFP) (mouse) (UniProt J9SQF3).
T1 sequence: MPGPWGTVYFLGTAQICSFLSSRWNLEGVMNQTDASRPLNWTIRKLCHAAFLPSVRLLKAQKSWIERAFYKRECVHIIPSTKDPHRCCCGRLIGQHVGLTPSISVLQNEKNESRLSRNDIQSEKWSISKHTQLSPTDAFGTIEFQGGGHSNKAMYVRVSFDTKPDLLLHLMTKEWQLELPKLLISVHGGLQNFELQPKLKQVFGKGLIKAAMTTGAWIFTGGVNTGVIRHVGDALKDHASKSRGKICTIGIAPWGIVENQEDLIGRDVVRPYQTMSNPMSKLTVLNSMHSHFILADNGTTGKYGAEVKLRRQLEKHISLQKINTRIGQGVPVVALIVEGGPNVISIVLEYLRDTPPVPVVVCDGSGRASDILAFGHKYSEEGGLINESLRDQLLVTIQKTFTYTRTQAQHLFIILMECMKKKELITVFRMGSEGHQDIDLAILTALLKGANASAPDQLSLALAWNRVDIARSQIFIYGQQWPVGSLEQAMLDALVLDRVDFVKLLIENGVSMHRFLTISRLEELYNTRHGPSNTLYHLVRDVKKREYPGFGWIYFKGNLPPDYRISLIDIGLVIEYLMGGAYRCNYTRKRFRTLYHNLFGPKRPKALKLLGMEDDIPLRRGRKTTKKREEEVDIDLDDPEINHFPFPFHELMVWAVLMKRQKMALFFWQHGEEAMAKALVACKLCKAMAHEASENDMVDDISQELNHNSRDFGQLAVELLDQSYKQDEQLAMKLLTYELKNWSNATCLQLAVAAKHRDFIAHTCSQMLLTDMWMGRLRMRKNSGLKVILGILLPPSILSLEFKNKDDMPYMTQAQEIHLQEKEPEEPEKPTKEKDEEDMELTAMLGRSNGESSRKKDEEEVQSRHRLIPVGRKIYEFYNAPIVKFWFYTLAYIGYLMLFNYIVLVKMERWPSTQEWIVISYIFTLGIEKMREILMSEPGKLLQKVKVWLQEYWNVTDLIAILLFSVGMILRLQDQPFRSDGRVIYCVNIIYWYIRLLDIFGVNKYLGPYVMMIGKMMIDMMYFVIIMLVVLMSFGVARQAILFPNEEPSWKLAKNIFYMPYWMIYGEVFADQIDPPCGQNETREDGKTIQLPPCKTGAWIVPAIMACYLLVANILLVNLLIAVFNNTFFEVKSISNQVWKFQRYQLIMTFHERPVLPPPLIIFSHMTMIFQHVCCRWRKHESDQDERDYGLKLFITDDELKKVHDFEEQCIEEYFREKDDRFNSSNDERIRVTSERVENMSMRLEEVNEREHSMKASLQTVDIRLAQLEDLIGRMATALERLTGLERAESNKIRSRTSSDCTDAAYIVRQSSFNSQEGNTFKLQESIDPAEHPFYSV
The assay can be described thus: co-IP; HEK293T cells co-transfected; lysate incubated with anti-RFP or anti-Flag antibody (2 μg, 4 °C, 4 h), then Protein A/G PLUS-Agarose overnight at 4 °C; five PBS washes; western blot with anti-Flag / anti-RFP; IgG control. In general terms: A western blot detects proteins with antibodies after separation by electrophoresis.

In assay [2] the target is Copine-6 carrying a C-terminal Flag-tag (Copine-6-Flag) (not stated (rat or mouse cDNA cloned)) (UniProt Q9Z140). The description is as above.

B1: Copine-6 C2A domain (Copine-6 1-151), Flag-tagged (domain or fragment, UniProt Q9Z140 1-151)
chain: MSDPEMGWVPEPPAMTLGASRVELRVSCHGLLDRDTLTKPHPCVLLKLYSDEQWVEVERTEVLRSCSSPVFSRVLAIEYFFEEKQPLQFHVFDAEDGATSPSSDTFLGSTECTLGQIVSQTKVTKPLLLKNGKTAGKSTITIVAEEVSGTN
Take B1: the binding entry in assay [1] is “binds”.

B2: Copine-6 vWA domain (Copine-6 269-557), Flag-tagged (domain or fragment, UniProt Q9Z140 269-557)
chain: YRDKKKNYKSSGTVVLAQCTVEKVHTFLDYIMGGCQISFTVAIDFTASNGDPRSSQSLHCLSPRQPNHYLQALRTVGGICQDYDSDKRFPAFGFGARIPPNFEVSHDFAINFDPENPECEEISGVIASYRRCLPQIQLYGPTNVAPIINRVAEPAQREQSTGQATKYSVLLVLTDGVVSDMAETRTAIVRASRLPMSIIIVGVGNADFSDMRLLDGDDGPLRCPKGVPAARDIVQFVPFRDFKDAAPSALAKCVLAEVPRQVVEYYASQGISPGAPRPSTPAMTPSPSP
Turning to B2, the binding result in assay [1] is listed as “binds”.

B3: TRPM3 with a C-terminal RFP tag (TRPM3-RFP) (protein, UniProt J9SQF3-13 1-1337)
chain: T1 sequence
With B3, the binding result in assay [2] is on record as “binds”.
